PubChem BioAssay AID1224828 – NIAID – 2016
This is a random part of about 17,000 reagents tested. Of all reagents, 762 (4.5%) got an active call. 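Active calls include both raised and lowered p65 entry, mostly lowered; wells with fewer than 50 cells lack a z-score.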 Raw values vary from plate to plate and are shown uncorrected.

Test: 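Find genes required for NF-kappaB p65 moving into the nucleus after LPS in mouse macrophages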 (primary screen)
Cells: mouse RAW264.7 G9 macrophage reporter cells (GFP-p65, Tnf promoter-mCherry)
Reagent: siRNA pool against mouse genes, 100 nM
Time to read-out: 2 days siRNA transfection, then 40 min LPS before fixation
Conditions: LPS (Salmonella minnesota R595) at 10 ng/ml
Measured: 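Imaged p65 nuclear translocation ratio, normalised to the plate median, converted to robust z-scores and averaged across two replicates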
Scale: p65 translocation robust z-score: higher = more nuclear NF-kappaB p65 after LPS than the plate median; nuclear/cytoplasmic p65 ratio: higher = more nuclear NF-kappaB p65
Active means: 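Active if robust z is above 3.3 (negative regulators) or below -1.56, the Tlr4 control median (positive regulators); activity score 50 or more; control wells not called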
Meaning of the calls: active = hit (p65 shift raised or lowered); inactive = no clear change

Target gene	p65 translocation robust z-score	nuclear/cytoplasmic p65 ratio, rep 1	nuclear/cytoplasmic p65 ratio, rep 2	low cell count flag	Outcome
Tomm6 (GeneID 66119)	0.99	1.73	1.53	enough cells to score	inactive
Cpb1 (GeneID 76703)	-0.28	1.46	1.33	enough cells to score	inactive
Syn2 (GeneID 20965)	2.33	1.76	1.36	enough cells to score	inactive
Ctrb1 (GeneID 66473)	0.24	1.69	1.74	enough cells to score	inactive
Nxnl2 (GeneID 75124)	-0.06	1.22	1.34	enough cells to score	inactive
Mrm2 (GeneID 68017)		1.1	1.22	fewer than 50 cells per well; well left out of scoring	inactive
Or7g29 (GeneID 258518)	0.18	1.47	1.29	enough cells to score	inactive
Rcl1 (GeneID 59028)	1.6	1.74	1.31	enough cells to score	inactive
Or6c65 (GeneID 258930)		1.33	1.18	fewer than 50 cells per well; well left out of scoring	inactive
C2cd5 (GeneID 74741)	1.46	1.49	1.72	enough cells to score	inactive
Or6c3 (GeneID 258544)		1.34	1.14	fewer than 50 cells per well; well left out of scoring	inactive
Klrc3 (GeneID 58179)	2.21	1.93	1.67	enough cells to score	inactive
Wfdc1 (GeneID 67866)	-1.17	1.47	1.32	enough cells to score	inactive
Ccdc134 (GeneID 76457)		1.27	1.42	fewer than 50 cells per well; well left out of scoring	inactive
Rps3 (GeneID 27050)	-2.05	1.23	1.17	enough cells to score	active
Fhit (GeneID 14198)	-1.12	1.27	1.24	enough cells to score	inactive
Raet1a (GeneID 19368)		1.33	1.02	fewer than 50 cells per well; well left out of scoring	inactive
Atp5me (GeneID 11958)	-0.92	1.53	1.32	enough cells to score	inactive
Tmco5a (GeneID 67356)		1.18	1.12	fewer than 50 cells per well; well left out of scoring	inactive
Mcptl (GeneID 17233)	-0.45	1.67	1.46	enough cells to score	inactive
Cryba1 (GeneID 12957)	-1.81	1.15	1.13	enough cells to score	active
Reg3g (GeneID 19695)	1.39	1.47	1.37	enough cells to score	inactive
Or6c35 (GeneID 258723)		1.75	1.73	fewer than 50 cells per well; well left out of scoring	inactive
Or8j3b (GeneID 404325)	0.06	1.68	1.58	enough cells to score	inactive
Ssbp2 (GeneID 66970)	0.87	1.53	1.33	enough cells to score	inactive
Stard8 (GeneID 236920)	-0.23	1.39	1.2	enough cells to score	inactive
Zfyve26 (GeneID 211978)	1.64	1.66	1.68	enough cells to score	inactive
Ltk (GeneID 17005)	1.45	1.85	1.56	enough cells to score	inactive
Pstpip1 (GeneID 19200)	-0.21	1.57	1.29	enough cells to score	inactive
Ndnf (GeneID 68169)	1.4	1.5	1.72	enough cells to score	inactive
Or8b57 (GeneID 258824)	-0.75	1.34	1.07	enough cells to score	inactive
Tbc1d24 (GeneID 224617)	-1.24	1.28	1.33	enough cells to score	inactive
Or8j3 (GeneID 259019)	0.05	1.77	1.5	enough cells to score	inactive
Or52h2 (GeneID 259057)	-0.07	1.41	1.28	enough cells to score	inactive
Hid1 (GeneID 217310)	-0.74	1.35	1.4	enough cells to score	inactive
Tbca (GeneID 21371)	-0.49	1.44	1.41	enough cells to score	inactive
Hdac10 (GeneID 170787)	-0.17	1.46	1.31	enough cells to score	inactive
Hmgn5 (GeneID 50887)	0.91	1.9	1.62	enough cells to score	inactive
Ly75 (GeneID 17076)		1.48	1.35	fewer than 50 cells per well; well left out of scoring	inactive
Wfdc2 (GeneID 67701)		1.53		fewer than 50 cells per well; well left out of scoring	inactive
Ube2g1 (GeneID 67128)	0.66	1.64	1.56	enough cells to score	inactive
Rock1 (GeneID 19877)	-0.29	1.6	1.37	enough cells to score	inactive
Amz2 (GeneID 13929)	2.19	1.25	1.5	enough cells to score	inactive
Kcna5 (GeneID 16493)	0.45	1.57	1.41	enough cells to score	inactive
Ids (GeneID 15931)	0.09	1.43	1.4	enough cells to score	inactive
Sertad2 (GeneID 58172)	0.52	1.57	1.68	enough cells to score	inactive
Thsd4 (GeneID 207596)	-0.16	1.6	1.58	enough cells to score	inactive
Isg20l2 (GeneID 229504)	-0.13	1.67	1.66	enough cells to score	inactive
Rpl27a (GeneID 26451)	-1.34	1.14	1.15	enough cells to score	inactive
Syt10 (GeneID 54526)	0.95	1.46	1.32	enough cells to score	inactive
Pink1 (GeneID 68943)	-0.44	1.71	1.24	enough cells to score	inactive
Dusp18 (GeneID 75219)	-0.3	1.47	1.31	enough cells to score	inactive
Traf3 (GeneID 22031)	0.61	1.54	1.64	enough cells to score	inactive
Lsm8 (GeneID 76522)		1.38	1.21	fewer than 50 cells per well; well left out of scoring	inactive
Atxn1 (GeneID 20238)	1.54	1.69	1.78	enough cells to score	inactive
Aacs (GeneID 78894)	0.99	1.67	1.67	enough cells to score	inactive
Eif2ak4 (GeneID 27103)		1.49	1.52	fewer than 50 cells per well; well left out of scoring	inactive
X99300 (retired record) (GeneID 57359)	0.26	1.41	1.31	enough cells to score	inactive
Bax (GeneID 12028)	-1.12	1.36	1.52	enough cells to score	inactive
Tspan14 (GeneID 52588)	-1.38	1.35	1.58	enough cells to score	inactive
Iars1 (GeneID 105148)	-0.31	1.55	1.35	enough cells to score	inactive
Mmrn1 (GeneID 70945)	-0.09	1.43	1.33	enough cells to score	inactive
Ndst3 (GeneID 83398)	-0.67	1.69	1.48	enough cells to score	inactive
Cd200r1l (GeneID 319823)	-0.62	1.46	1.41	enough cells to score	inactive
Klc4 (GeneID 74764)	1.72	1.48	1.78	enough cells to score	inactive
Serpinb9e (GeneID 20710)	-0.28	1.46	1.14	enough cells to score	inactive
Cdc25b (GeneID 12531)	-0.11	1.38	1.42	enough cells to score	inactive
Adarb2 (GeneID 94191)	-1	1.44	1.54	enough cells to score	inactive
Slc16a2 (GeneID 20502)	0.28	1.49	1.25	enough cells to score	inactive
Ttf2 (GeneID 74044)	-1.32	1.37	1.28	enough cells to score	inactive
Calcoco1 (GeneID 67488)		1.86	1.65	fewer than 50 cells per well; well left out of scoring	inactive
Ciao2b (GeneID 68523)	0.01	1.65	1.35	enough cells to score	inactive
Ttll13 (GeneID 269954)		1.69	1.7	fewer than 50 cells per well; well left out of scoring	inactive
Slc26a4 (GeneID 23985)	-0.02	1.45	1.58	enough cells to score	inactive
Camp (GeneID 12796)	-0.95	1.47	1.47	enough cells to score	inactive
